Results on 1 molecule are retold here after PMC7558343.

By UniProt entry, the sequences of proteins in these tests, tags left out.
UniProt O43865: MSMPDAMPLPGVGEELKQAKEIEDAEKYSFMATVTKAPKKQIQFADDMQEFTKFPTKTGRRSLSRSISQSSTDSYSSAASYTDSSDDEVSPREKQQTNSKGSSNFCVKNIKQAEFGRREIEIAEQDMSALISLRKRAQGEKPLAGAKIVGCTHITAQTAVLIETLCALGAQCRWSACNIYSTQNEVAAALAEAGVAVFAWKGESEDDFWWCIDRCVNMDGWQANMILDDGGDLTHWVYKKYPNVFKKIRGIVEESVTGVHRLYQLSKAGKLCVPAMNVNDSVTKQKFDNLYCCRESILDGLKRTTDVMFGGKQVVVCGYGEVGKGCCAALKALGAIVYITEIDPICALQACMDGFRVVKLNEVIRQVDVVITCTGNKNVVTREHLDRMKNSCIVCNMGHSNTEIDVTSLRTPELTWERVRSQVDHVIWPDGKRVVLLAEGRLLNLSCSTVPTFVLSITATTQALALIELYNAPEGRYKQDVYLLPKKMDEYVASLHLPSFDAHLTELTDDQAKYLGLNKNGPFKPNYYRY

Results are given in words; binding and its absence hold for the method and conditions named. Binding seen in cells or lysates may run through a third protein. Some binding calls cover weakened binding; strength is not graded here. Tags and fused reporters may be left off the sequences shown.

The target in the assay is GFP-tagged IRBIT (IP3 receptor-binding protein released with IP3) (UniProt O43865). Nature of the assay: co-IP; HEK293T cells transfected with HA-NBCn1 and GFP-IRBIT; lysate (20 mM Tris, 150 mM NaCl, 2 mM EDTA, 1% Triton X-100) immunoprecipitated with GFP antibody at 4 °C for 16 h, protein G agarose beads, blotted with NBCn1 antibody.

B1: HA-tagged NBCn1 (electroneutral sodium bicarbonate cotransporter 1) (protein, UniProt Q9Y6M7 1-1214)
chain: MERFRLEKKLPGPDEEAVVDLGKTSSTVNTKFEKEELESHRAVYIGVHVPFSKESRRRHRHRGHKHHHRRRKDKESDKEDGRESPSYDTPSQRVQFILGTEDDDEEHIPHDLFTEMDELCYRDGEEYEWKETARWLKFEEDVEDGGDRWSKPYVATLSLHSLFELRSCILNGTVMLDMRASTLDEIADMVLDNMIASGQLDESIRENVREALLKRHHHQNEKRFTSRIPLVRSFADIGKKHSDPHLLERNGEGLSASRHSLRTGLSASNLSLRGESPLSLLLGHLLPSSRAGTPAGSRCTTPVPTPQNSPPSSPSISRLTSRSSQESQRQAPELLVSPASDDIPTVVIHPPEEDLEAALKGEEQKNEENVDLTPGILASPQSAPGNLDNSKSGEIKGNGSGGSRENSTVDFSKVDMNFMRKIPTGAEASNVLVGEVDFLERPIIAFVRLAPAVLLTGLTEVPVPTRFLFLLLGPAGKAPQYHEIGRSIATLMTDEIFHDVAYKAKDRNDLLSGIDEFLDQVTVLPPGEWDPSIRIEPPKSVPSQEKRKIPVFHNGSTPTLGETPKEAAHHAGPELQRTGRLFGGLILDIKRKAPFFLSDFKDALSLQCLASILFLYCACMSPVITFGGLLGEATEGRISAIESLFGASLTGIAYSLFAGQPLTILGSTGPVLVFEKILYKFCRDYQLSYLSLRTSIGLWTSFLCIVLVATDASSLVCYITRFTEEAFAALICIIFIYEALEKLFDLGETYAFNMHNNLDKLTSYSCVCTEPPNPSNETLAQWKKDNITAHNISWRNLTVSECKKLRGVFLGSACGHHGPYIPDVLFWCVILFFTTFFLSSFLKQFKTKRYFPTKVRSTISDFAVFLTIVIMVTIDYLVGVPSPKLHVPEKFEPTHPERGWIISPLGDNPWWTLLIAAIPALLCTILIFMDQQITAVIINRKEHKLKKGAGYHLDLLMVGVMLGVCSVMGLPWFVAATVLSISHVNSLKVESECSAPGEQPKFLGIREQRVTGLMIFILMGLSVFMTSVLKFIPMPVLYGVFLYMGVSSLKGIQLFDRIKLFGMPAKHQPDLIYLRYVPLWKVHIFTVIQLTCLVLLWVIKVSAAAVVFPMMVLALVFVRKLMDLCFTKRELSWLDDLMPESKKKKEDDKKKKEKEEAERMLQDDDDTVHLPFEGGSLLQIPVKALKYSPDKPVSVKISFEDEPRKKYVDAETSL
On to B1, for which the binding result is given as “binds”.
